The structures appear in SMILES notation. Structures can show the parent of a compound that is named as a salt. The whole screen tested about 5,300 compounds, of which about 130 (2.5%) showed an effect of 50% or more. The list shows a part of the results.

This test has as its system M. mycetomatis strain mm55. Conditions: primary screen, metabolic activity vs growth control; 96 h, 2 µM; inhibitor.
For `C[C@@H]1C[C@H]2[C@@H]3CCC4=CC(=O)C=C[C@]4(C)[C@@]3(F)[C@@H](O)C[C@]2(C)[C@@]1(O)C(=O)COP(=O)(O)O` [ONC0000407, dexamethasone sodium phosphate], the “% viability” value was 67.46%. Under `CCN(CC)CCNC(C(=O)OCCC(C)C)c1ccccc1` (stereo not shown) [ONC0004025, camylofine dihydrochloride] stands 81.77%. The same measure for `COc1cccc(Nc2ncnn3ccc(CN4CC[C@@H](N)[C@H](O)C4)c23)c1` [ONC0001177, bms690514]: 112.7%. Under `Cc1cccc(C)c1NC(=O)N=C1CCCN1C` [ONC0002364, xilobam] stands 78.29%; under `COc1ccc(-n2c(SCCCN3C(=O)c4cccc5cccc(c45)C3=O)nnc2-c2ccncc2)cc1` [ONC0000913, wiki4], 61.96%. With `Oc1c(I)cc(I)c(O)c1I` [ONC0003806, riodoxol], the “% viability” value amounted to 55.27%. Under `CCCN(C/C=C/I)C1CCc2cccc(O)c2C1` (stereo not shown) [ONC0000125, 8hydroxypipat] stands 86.56%; under `CCC(Oc1ccc(Cl)cc1)C(=O)OC1CC2CCC(C1)N2C` (stereo not shown) [ONC0000115, sm21], 119.3%; under `O=c1c(O[C@@H]2O[C@H](CO)[C@H](O)[C@H](O)[C@H]2O)c(-c2ccc(O)c(O)c2)oc2cc(O)cc(O)c12` [ONC0002825], 91.4%. The same measure for `Nc1nc(Cl)nc2c1ncn2[C@@H]1O[C@H](CO)[C@@H](O)[C@H]1O` [ONC0002576, 2chloroadenosine]: 91.53%; for `O=c1[nH]c2ccccc2n1CCCN1CCN(C(c2ccccc2)c2ccccc2)CC1` [ONC0003510, oxatomide]: 63.66%. Under `CC(C)[N+](C)(CCC(C(N)=O)(c1ccccc1)c1ccccc1)C(C)C` [ONC0000564, isopropamide iodide] stands 79.28%; under `Nc1nc2ncc(CNc3ccc(C(=O)N[C@@H](CCC(=O)O)C(=O)O)cc3)nc2c(=O)[nH]1` [ONC0000639, folic acid], 99.2%; under `CC(C)[C@H](CO)Nc1nc(Nc2ccc(C(=O)O)c(Cl)c2)c2ncn(C(C)C)c2n1` [ONC0001466, purvalanolb], 58.63%.

On to `COc1cc(COc2cc(N)c(Cl)cc2C(=O)CCC2CCN(CCNS(C)(=O)=O)CC2)cc(OC)c1` [ONC0001907, rs39604], for which the “% viability” value was determined as 85.64%.

`Cc1n[nH]c2ccc(-c3cncc(OC[C@@H](N)Cc4ccccc4)c3)cc12` [ONC0005067, a674563]: the “% viability” value was 73.24%. The same measure for `COc1ccc2nc([S@@+]([O-])Cc3ncc(C)c(OC)c3C)[nH]c2c1` [ONC0004845, nexium esomeprazole magnesium]: 116.2%.

As for `Cc1cc(C)c(S(=O)(=O)Nc2ccccc2C(F)(F)F)c(C)c1` [ONC0000959, o3m3fbs], the “% viability” value is on record as 72.31%.

For `Cc1c(-c2cnccn2)ssc1=S` [ONC0004101, oltipraz], the “% viability” value is listed as 111.4%. Under `N#Cc1cnc2cnc(NCc3cccnc3)cc2c1Nc1ccc(F)c(Cl)c1` [ONC0001337, tcs7006] stands 78.74%. The same measure for `Cn1cc(CCn2cnc(-c3cnn(C)c3)c2-c2ccc(C#N)cc2)cn1` [ONC0003022, baz2icr]: 78.44%; for `Cn1cnc([N+](=O)[O-])c1Sc1ncnc2nc[nH]c12` [ONC0003177, azathioprine]: 69.21%; for `CCn1c2ccccc2c2cc(CNCc3ccccc3OC)ccc21` [ONC0001052, hlcl61 hydrochloride]: 87.19%.

`CC(C)OC(=O)OCOP(=O)(CO[C@H](C)Cn1cnc2c(N)ncnc21)OCOC(=O)OC(C)C` [ONC0004663, tenofovir disoproxil fumarate]: the “% viability” value turned out to be 98.91%. Regarding `C=CC(=O)N1CCCC(n2c(=O)n(-c3ccc(Oc4ccccc4)cc3)c3c(N)ncnc32)C1` (stereo not shown) [ONC0004392, ono4059], the “% viability” value was 98.71%. Under `C[N+](C)(C)CC(=O)O` [ONC0000528, betaine hydrochloride] stands 65.55%. The same measure for `O=C(O)c1ccccc1C(=O)Nc1ccc(S(=O)(=O)Nc2nccs2)cc1` [ONC0000650, phthalylsulfathiazole]: 115.2%; for `O=c1[nH]c2ccccc2n1CCCN1CCC(n2c(=O)[nH]c3cc(Cl)ccc32)CC1` [ONC0003886, domperidone]: 64.34%; for `CN(c1nccc(=O)[nH]1)C1CCN(c2nc3ccccc3n2Cc2ccc(F)cc2)CC1` [ONC0004622, mizolastine mizollen]: 58.02%. Under `OCCN(CCO)c1nc(N2CCCCC2)c2nc(N(CCO)CCO)nc(N3CCCCC3)c2n1` [ONC0000691, dipyridamole] stands 121.2%; under `Cc1ccc(NC(=O)c2cccc(C(C)(C)C#N)c2)cc1Nc1ccc2ncn(C)c(=O)c2c1` [ONC0000069, az628], 82.55%; under `CCc1nc(C)ccc1O` [ONC0003743, emoxipin], 128.3%.

As to `CC[C@H](CO)Nc1nc(NCc2ccccc2)c2ncn(C(C)C)c2n1` [ONC0004717, roscovitine seliciclib cyc202], the “% viability” value is given as 138.2%.

On to `NC(=O)c1nnn(Cc2cc(Cl)c(C(=O)c3ccc(Cl)cc3)c(Cl)c2)c1N` [ONC0005496, carboxyamidotriazole], for which the “% viability” value is on record as 98.65%. In the case of `CN1CC[C@@H]2CN3CCc4cccc(c43)[C@@H]2C1` [ONC0002584, sdzser082], the “% viability” value was found to be 50.18%.

Consider `COC(=O)[C@@H]1CC2=CC(=O)CC[C@]2(C)[C@@]23O[C@@H]2C[C@@]2(C)[C@@H](CC[C@@]24CCC(=O)O4)[C@H]13` [ONC0001296, eplerenone], for which the “% viability” value turned out to be 126.2%.

As to `CC(C)OC(=O)C1=CN(C(=O)c2ccc(F)c(F)c2)CC(C)(C)c2c1[nH]c1ccccc21` [turofexorate isopropyl xl335], the “% viability” value amounted to 92.43%. The same measure for `CN1CCN(C(c2ccccc2)c2ccccc2)CC1` [ONC0000283, cyclizine]: 71.97%; for `O=C(/C=C\n1cnc(-c2cc(C(F)(F)F)cc(C(F)(F)F)c2)n1)N1CC(F)(F)C1` [ONC0004404, kpt276]: 112.1%; for `CN(CC(=O)O)C(=N)N` [ONC0003801, creatine]: 63.3%. The same measure for `O=C(O)Cc1ccc(CCNS(=O)(=O)c2ccc(Cl)cc2)cc1` [ONC0002194, daltroban]: 74.66%; for `C[C@]12CC[C@@H]3c4ccc(OC(=O)c5ccccc5)cc4CC[C@H]3[C@@H]1CC[C@@H]2O` [ONC0000655, estradiol benzoate]: 107.6%. Under `Cc1ccc(F)c(NC(=O)Nc2ccc(-c3cccc4[nH]nc(N)c34)cc2)c1` [ONC0004684, linifanib abt869] stands 93.84%. With `O=c1onc2cnc3ccccc3n12` [ONC0002647, odq], the “% viability” value is 62.96%. Under `O=C(CCCN1CCN(c2ccccn2)CC1)c1ccc(F)cc1` [ONC0003996, azaperone] stands 81.42%; under `O=C(Nc1ccncc1)c1cc([N+](=O)[O-])ccc1Cl` [ONC0003673, t0070907], 54.04%. The same measure for `C#C[C@]1(O)CC[C@H]2[C@@H]3CCC4=CCCC[C@@H]4[C@H]3CC[C@@]21C` [ONC0005352, lynestrenol]: 86.96%; for `C[C@@H](O)[C@@H]1NC(=O)[C@H](CCCCN)NC(=O)[C@@H](Cc2c[nH]c3ccccc23)NC(=O)[C@H](Cc2ccccc2)NC(=O)[C@@H](NC(=O)[C@H](N)Cc2ccccc2)CSSC[C@@H](C(=O)N[C@H](CO)[C@@H](C)O)NC1=O` [ONC0002167, octreotide acetate]: 72.01%. The same measure for `N[C@@H](Cc1ccc(B(O)O)cc1)C(=O)O` [ONC0005503, boronophenylalanine]: 97.13%; for `O=S(=O)(N[C@H]1CC[C@@](c2cc(F)ccc2F)(S(=O)(=O)c2ccc(Cl)cc2)CC1)C(F)(F)F` [ONC0001737, mrk560]: 116.9%; for `C[C@]12CCC3C(CC[C@]4(O)C[C@@H](O)CC[C@]34C=O)[C@@]1(O)CCC2C1=CC(=O)OC1` (stereo partly shown) [ONC0003512, strophantidin]: 60.95%.

`CNCCCC1(c2ccccc2)OC(C)(C)c2ccccc21` (stereo not shown) [ONC0000880, talopram]: the “% viability” value was 94.2%. Under `C[C@H](CCC(=O)O)[C@H]1CC[C@H]2[C@@H]3[C@@H](O)C[C@@H]4C[C@H](O)CC[C@]4(C)[C@H]3CC[C@]12C` [ONC0003173, ursodiol] stands 114.2%; under `NC1CCC(N[C@@H]2C[C@H]2c2ccccc2)CC1` (stereo partly shown) [ONC0004699, ory1001 rg6016 2hcl], 133.1%.

For the compound `C[C@@H](CN1CCC(Cc2ccccc2)CC1)[C@@H](O)c1ccc(O)cc1` [ONC0001553, ro256981], the “% viability” value worked out at 116.8%. The same measure for `N#Cc1cc2nc(O)c(O)nc2cc1[N+](=O)[O-]` [ONC0000818, cnqx]: 71.7%; for `COC(=O)C1=C(C#N)NC(C)=C(C(=O)OC(C)C)C1c1cccc([N+](=O)[O-])c1` (stereo not shown) [nilvadipine arc029]: 85.22%; for `COC(=O)[C@H](NC(=O)c1cc(-c2ccccc2)nc2ccccc12)c1ccccc1` [ONC0001501, sb218795]: 80.75%. For `COc1oc(=O)c2cc(N)ccc2c1Cl` [ONC0001285, jlk6], the “% viability” value came to 102.3%. Under `C#C[C@]1(O)CCC2C3CCC4=C(CCC(=O)C4)C3CC[C@@]21C` (stereo partly shown) [ONC0000393, norethynodrel] stands 78.62%; under `N[C@@H](CS(=O)O)C(=O)O` [ONC0001597, lcysteinesulfinicacid], 62.57%.
